# Library screen at single concentrations

By UniProt entry, the sequences of proteins in these tests, tags left out. Residues count along the entry.
UniProt Q8IDJ8, 1-583: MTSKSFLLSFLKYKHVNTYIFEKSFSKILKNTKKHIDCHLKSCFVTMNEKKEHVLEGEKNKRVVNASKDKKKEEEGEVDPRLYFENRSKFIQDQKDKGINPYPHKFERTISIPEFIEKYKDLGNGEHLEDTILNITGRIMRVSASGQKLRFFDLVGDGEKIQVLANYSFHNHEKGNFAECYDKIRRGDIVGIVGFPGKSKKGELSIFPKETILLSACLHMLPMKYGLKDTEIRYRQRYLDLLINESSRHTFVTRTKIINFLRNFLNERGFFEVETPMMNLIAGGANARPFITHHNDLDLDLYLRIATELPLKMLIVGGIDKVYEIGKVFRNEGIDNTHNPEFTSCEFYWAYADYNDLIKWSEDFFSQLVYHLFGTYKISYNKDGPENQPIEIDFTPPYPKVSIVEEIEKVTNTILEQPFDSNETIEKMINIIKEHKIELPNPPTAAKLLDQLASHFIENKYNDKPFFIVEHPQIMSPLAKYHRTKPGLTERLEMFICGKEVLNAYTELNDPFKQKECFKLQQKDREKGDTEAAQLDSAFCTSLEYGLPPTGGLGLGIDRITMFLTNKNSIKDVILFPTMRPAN
UniProt P9WNZ1, whole entry: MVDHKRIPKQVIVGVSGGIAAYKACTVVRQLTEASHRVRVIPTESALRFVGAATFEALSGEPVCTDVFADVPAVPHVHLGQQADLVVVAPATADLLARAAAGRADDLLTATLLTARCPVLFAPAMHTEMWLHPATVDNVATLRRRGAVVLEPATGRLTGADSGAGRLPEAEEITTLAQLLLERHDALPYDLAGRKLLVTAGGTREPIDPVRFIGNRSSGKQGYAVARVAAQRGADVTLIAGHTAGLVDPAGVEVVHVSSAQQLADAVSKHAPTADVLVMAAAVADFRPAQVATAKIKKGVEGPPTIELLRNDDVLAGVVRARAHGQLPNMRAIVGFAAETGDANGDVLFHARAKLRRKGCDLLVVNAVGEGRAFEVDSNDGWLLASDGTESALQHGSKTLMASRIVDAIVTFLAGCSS

Values are the deposited “Percent Effect”, in %.
The record does not define 0% and 100%; most values in the screen are far below 50% and negative numbers occur (in some assays of this library far below -100).
This is an unselected part of the compounds tested.
Two or more numbers in one place are separate tests of the same structure; such repeats can differ widely.
A dash means the value is not listed here; it may have been measured.

A: 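Enzyme assay of the cytosolic lysyl-tRNA synthetase in 384-well plates, read by luminescence. Target: Lysine-tRNA ligase, Plasmodium falciparum 3D7 (UniProt Q8IDJ8). Compounds at 30 µM. Higher reads as stronger inhibition, judged from the few compounds that gave an IC50. Of about 69,000 compounds tested this way, about 49 (0.071%) reached 50% or more in at least one test.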
B: 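Assay of Toxoplasma gondii numbers, read through their beta-galactosidase reporter with a colour substrate. Concentration: 10 µM. The record gives no direction; the compounds picked for IC50 retests had high values, so higher reads as fewer parasites. Size under these conditions: about 67,000 compounds, about 260 of them at 50% or above in at least one test.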
C: 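Coenzyme A biosynthesis protein CoaBC, Mycobacterium tuberculosis (UniProt P9WNZ1). Enzyme assay of CoaBC with a phosphate dye (Biomol Green) read at 650 nm. Concentration: 30 µM. Higher reads as stronger inhibition, judged from the few compounds that gave an IC50. Most strong results did not repeat in a second test. About 67,000 compounds were tested under these conditions; 0.06% (about 40) showed 50% or more at least once.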

Compound	A	B	C
CCc1cnc(CN(C)C(=O)Nc2cnn(CC3CCCO3)c2)s1 (configuration not stated)	-0.7937	8.649	-4.133
O=C(C1CC1)N1CCc2c(ncnc2NCCc2nc3c(s2)CCC3)C1	4.096	3.353	0.9756
CN1CCc2c(C#N)c(NCC3CCCO3)n3cnnc3c2C1.Cl (configuration not stated)	-	1.994	-
O=C(Nc1cccc(N2CCN(CC3CC3)CC2)c1)C1CCCO1 (configuration not stated)	-1.108	13.93	-15.58
O=C(N1CCCC1)N1CCCC2(CCN(c3ccsc3)C2=O)C1 (configuration not stated)	0.8446	18.92	3.585
Cc1cc(C(=O)NCc2ccnc(OCC(F)(F)F)c2)no1	1.232	-25.61	4.943
Cc1cc(C)n(CCCNC(=O)NCc2c(C)cc(C)[nH]c2=O)n1	6.047	0.9091	1.167
CN(Cc1cnn(C)c1)C(=O)c1cc2ccccc2c(=O)[nH]1	8.884	-0.9091	-0.9823
COc1ccc2nnc(CCCC(=O)NCc3ccccc3OC)n2n1	4.251	18.87	5.206
O=C(CCC1CCCO1)NS(=O)(=O)c1ccc(Cl)cc1 (configuration not stated)	4.865	12.35	0.8304
CC(=O)N1CCC(c2nccnc2Nc2cnccn2)CC1	4.431	-	5.226
COCCN1CCC2(CC1)CC(NC(=O)COC)c1ccccc1O2.O=C(O)C(F)(F)F (configuration not stated)	-	-31.69	-
c1ccc(-c2nnc(CNC3CCCN(c4cccnn4)C3)o2)cc1 (configuration not stated)	0.9839	15.73	3.947
CCn1cncc1CN1CCc2nc3sccc3c(=O)n2CC1	0.9524	0.2122	9.817
CC(c1cccnc1)N(C)Cc1cc(O)c2cc(F)ccc2n1 (configuration not stated)	3.11	-3.121	9.821
O=C(CC1CC1)N1CCc2ncc(CN3CCOCC3)n2CC1.O=C(O)C(F)(F)F	-	-37.69	-
c1cncc(CNCCc2cccs2)c1	6.043	-11.37	-5.765
Cc1csc(C(Cc2ccsc2)NC(=O)CN(C)Cc2ccccn2)n1.Cl (configuration not stated)	-	7.499	-
O=C(c1cccc(Cl)c1)N1CCCn2c(CN3CCCCC3)nnc2C1	-2.896	-	12.18
CC(C)N1CCC2(CC1)C(=O)N(c1cccnc1)c1ccc(F)cc12.Cl	-	-9.808	-
[H][C@@]12CNCC[C@]1(O)CCN(c1nccnc1N(C)C)C2	-	9.856	-
COc1ccccc1CNc1ncc(-c2cc(C)no2)c(C(C)C)n1	4.278	14.35	-1.211
Cc1noc(CCCC(=O)N2CCCCC2c2nccs2)n1 (configuration not stated)	-5.676	-0.8558	-
COCCN1CCN(C(=O)C[C@@H]2C[C@@H](C(C)C)[C@H](CO)C=C2C)CC1	4	-0.9009	7.901
NC(=O)CN1CCC(NC(=O)COCCOc2ccccc2)CC1	4.452	17.23	58.85 & 10.82
CN(CC(=O)N1CCCCC1Cn1cccn1)Cc1ccccc1 (configuration not stated)	-1.605	24.5	3.412
O=C(N[C@@H]1CN(Cc2ccc3cc[nH]c3c2)C[C@H]1O)c1cnccn1	1.424	-15.83	-0.9709
Cc1sc(NC(=O)CN(C)CCOc2cccc(F)c2)c(C)c1C	1.098	12.41	22.82 & 8.763
Cc1ccccc1-n1cc(-c2ccnc(N[C@H](CO)C(C)C)n2)cn1	1.675	2.055	-1.463
Cc1noc(C)c1CN1C[C@H](OCC2CC2)[C@H]2OCCC[C@H]21	1.545	-	0
COCC1CN(C(=O)CNC(C)=O)Cc2ncnn2C1 (configuration not stated)	3.13	10.52	4.091
FC(F)(F)c1nc(C2CCNCC2)no1	1.194	-	7.99
CC(C(=O)N(C)C)N1CCCN(C(=O)Oc2ccccc2)CC1 (configuration not stated)	5.02	1.684	6.105
CCOCC1CN(Cc2cccs2)Cc2nn(C)cc21 (configuration not stated)	7.592	-	6.303
NC(=O)c1cnc(-c2ccccc2)nc1CCNC(=O)CN1CCCC1	0.2615	-	-6.651
CCN(Cc1nccn1C)C(=O)c1ccc(NCc2cnn(C)c2)nc1	4.053	-4.235	3.354
CCC1CCCCCN1C(=O)c1ccc(N2CCC(O)CC2)cc1 (configuration not stated)	4.668	7.997	3.14
CC(C)S(=O)(=O)N1CCOC(CCc2ccccc2)C1 (configuration not stated)	0.667	1.685	3.043
COc1ncccc1C(=O)N1CCCC(c2cc(C)[nH]n2)C1 (configuration not stated)	-0.1686	-0.5169	-0.1186
CCOCC1CCN(C(=O)C(c2ccc(F)cc2)N(C)C)CC1 (configuration not stated)	2.737	15.88	-10.65
OC1CCN(c2cncc(CCC3CCCN3)n2)CC1 (configuration not stated)	-0.05691	-	3.154
CNC(=O)NC(=O)CN1CCCN(CC(F)(F)F)CC1	2.505	-2.806	1.225
Fc1cccc(CN2C[C@@H]3COC[C@]3(COCc3ccncc3)C2)c1	2.85	-	4.26
CCN(C)Cc1n[nH]c(=O)n1-c1cc(F)ccc1C	3.144	-11.6	4.198
Cc1cnccc1-c1cnn(CCNC(=O)C(C)(C)C)c1C1CC1.Cl	-	17.05	-
CNc1ccnc(NCCSc2nccn2C)n1	1.097	-3.402	6.8
COc1cccc(N2CCN(Cc3ccc(NC(C)=O)cc3)CC2=O)c1	3.225	-5.292	7.173
CN(C)CC1(O)CCN(S(=O)(=O)c2ccc(F)cc2)C1 (configuration not stated)	-1.493	-14.54	0
Cc1cc(Cn2cc(C#N)c(=O)c3ccccc32)on1	-1.15	4.966	2.233
COc1cccc(CN(Cc2ccco2)Cc2[nH]cnc2C)c1.O=C(O)CC(O)(CC(=O)O)C(=O)O	-	11.32	-
CC(C)(C)c1nnc(CN2CCCC(Cn3cncn3)C2)o1 (configuration not stated)	0.2344	4.737	5.181
Cc1ccc(C(=O)NS(=O)(=O)c2ccccc2C)c(=O)[nH]1	3.662	-0.7539	6.408
CC(C)(C)c1nc(CN2CCOC(Cn3cncn3)C2)cs1 (configuration not stated)	0.5605	27.38	6.513
Cc1cnn(CC2CCCN2Cc2nnsc2Cl)c1 (configuration not stated)	-5.629	-	4.884
Cc1cncc(C(=O)N2CCOc3nc(C)ccc32)c1	1.824	7.743	-6.143
Cc1noc(C)c1C(=O)NCCSCc1cccs1	2.282	-5.463	2.864

Repeated from the top, 5 entries:

Compound	A	B	C
CCc1cnc(CN(C)C(=O)Nc2cnn(CC3CCCO3)c2)s1 (configuration not stated)	-0.7937	8.649	-4.133
O=C(C1CC1)N1CCc2c(ncnc2NCCc2nc3c(s2)CCC3)C1	4.096	3.353	0.9756
CN1CCc2c(C#N)c(NCC3CCCO3)n3cnnc3c2C1.Cl (configuration not stated)	-	1.994	-
O=C(Nc1cccc(N2CCN(CC3CC3)CC2)c1)C1CCCO1 (configuration not stated)	-1.108	13.93	-15.58
O=C(N1CCCC1)N1CCCC2(CCN(c3ccsc3)C2=O)C1 (configuration not stated)	0.8446	18.92	3.585

The values are deposited in ChEMBL (CHEMBL3988442, “University of Dundee, Small-Polar-MMV Screening Library” (2021)).